This is one part of the list.
Key:
Assay in all cases: log2 fold change, soluble protein after heating vs DMSO (PISA); higher = thermal stabilisation; K562 lysate, 10 uM; active = over 0.2 and 3.5 SD of the protein, either way, in both replicates (recomputed)
alvocidib = compound: CN1CC[C@H](c2c(O)cc(O)c3c(=O)cc(-c4ccccc4Cl)oc23)[C@H](O)C1 [alvocidib]
Summary of the method: (§1)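 Soluble protein was defined as the supernatant remaining after 21,000xg for 90 min, following pooling of heated aliquots and adjustment to 0.5% NP-40 at 4°C. Before that, crude K562 extract at 1 mg/mL protein in PBS pH 7.4 with 1 mM MgCl2 was treated with 10 μM compound for 30 min and heated for 3 min across 48°C-58°C. Quantification used TMTpro 16plex LC-MS/MS with channel sums equalised, and values are log-two fold changes in thermal stability relative to solvent controls from duplicates.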

By UniProt entry, the sequences of proteins in these tests, tags left out. Where a name states a change or a piece, a line headed by the entry shows the natural chain unless it says otherwise.
UniProt Q969T4: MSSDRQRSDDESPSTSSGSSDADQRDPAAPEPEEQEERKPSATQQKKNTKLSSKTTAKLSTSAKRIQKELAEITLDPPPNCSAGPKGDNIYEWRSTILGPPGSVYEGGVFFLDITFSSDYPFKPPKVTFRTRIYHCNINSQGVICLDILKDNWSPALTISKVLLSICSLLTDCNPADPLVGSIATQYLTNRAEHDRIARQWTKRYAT
UniProt Q16222: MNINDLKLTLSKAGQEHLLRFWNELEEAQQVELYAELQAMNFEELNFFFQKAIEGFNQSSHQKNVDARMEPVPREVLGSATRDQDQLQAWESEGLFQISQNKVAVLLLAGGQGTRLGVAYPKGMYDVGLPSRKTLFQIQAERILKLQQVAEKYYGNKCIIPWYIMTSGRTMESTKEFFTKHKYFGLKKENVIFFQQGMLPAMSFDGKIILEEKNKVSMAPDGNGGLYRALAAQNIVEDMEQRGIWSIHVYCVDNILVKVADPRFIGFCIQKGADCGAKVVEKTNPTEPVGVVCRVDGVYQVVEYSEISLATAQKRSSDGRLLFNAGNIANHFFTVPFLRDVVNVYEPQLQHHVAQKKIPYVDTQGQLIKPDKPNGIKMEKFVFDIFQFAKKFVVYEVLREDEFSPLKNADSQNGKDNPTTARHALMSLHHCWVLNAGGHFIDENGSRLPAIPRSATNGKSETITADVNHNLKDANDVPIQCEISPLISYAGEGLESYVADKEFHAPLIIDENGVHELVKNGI
UniProt Q3KQV9: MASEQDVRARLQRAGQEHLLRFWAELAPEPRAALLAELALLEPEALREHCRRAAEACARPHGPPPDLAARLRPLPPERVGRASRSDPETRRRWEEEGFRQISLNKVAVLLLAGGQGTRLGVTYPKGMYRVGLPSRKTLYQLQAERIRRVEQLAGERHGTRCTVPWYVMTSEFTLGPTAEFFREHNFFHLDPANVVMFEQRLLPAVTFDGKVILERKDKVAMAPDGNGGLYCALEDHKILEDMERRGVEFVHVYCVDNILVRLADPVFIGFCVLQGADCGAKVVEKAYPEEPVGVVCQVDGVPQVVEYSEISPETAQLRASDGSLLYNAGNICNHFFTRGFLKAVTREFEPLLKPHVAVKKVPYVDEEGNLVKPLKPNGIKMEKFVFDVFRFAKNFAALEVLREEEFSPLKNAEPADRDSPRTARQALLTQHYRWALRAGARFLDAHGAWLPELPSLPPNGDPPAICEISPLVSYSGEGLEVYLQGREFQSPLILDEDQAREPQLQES
UniProt Q16763: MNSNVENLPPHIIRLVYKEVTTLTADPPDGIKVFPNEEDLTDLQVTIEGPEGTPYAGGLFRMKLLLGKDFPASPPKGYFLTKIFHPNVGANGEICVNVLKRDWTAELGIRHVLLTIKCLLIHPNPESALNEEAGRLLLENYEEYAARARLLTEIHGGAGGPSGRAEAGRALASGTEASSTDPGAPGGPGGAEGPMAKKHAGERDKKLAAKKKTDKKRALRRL
UniProt Q9HA47: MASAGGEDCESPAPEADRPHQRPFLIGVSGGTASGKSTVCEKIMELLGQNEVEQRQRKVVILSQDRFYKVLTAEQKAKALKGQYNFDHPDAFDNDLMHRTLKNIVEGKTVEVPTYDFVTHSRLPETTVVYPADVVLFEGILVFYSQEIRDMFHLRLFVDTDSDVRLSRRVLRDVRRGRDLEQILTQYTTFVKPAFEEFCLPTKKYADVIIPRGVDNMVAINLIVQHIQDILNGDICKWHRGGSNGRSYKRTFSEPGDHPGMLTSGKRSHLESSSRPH
UniProt O15042: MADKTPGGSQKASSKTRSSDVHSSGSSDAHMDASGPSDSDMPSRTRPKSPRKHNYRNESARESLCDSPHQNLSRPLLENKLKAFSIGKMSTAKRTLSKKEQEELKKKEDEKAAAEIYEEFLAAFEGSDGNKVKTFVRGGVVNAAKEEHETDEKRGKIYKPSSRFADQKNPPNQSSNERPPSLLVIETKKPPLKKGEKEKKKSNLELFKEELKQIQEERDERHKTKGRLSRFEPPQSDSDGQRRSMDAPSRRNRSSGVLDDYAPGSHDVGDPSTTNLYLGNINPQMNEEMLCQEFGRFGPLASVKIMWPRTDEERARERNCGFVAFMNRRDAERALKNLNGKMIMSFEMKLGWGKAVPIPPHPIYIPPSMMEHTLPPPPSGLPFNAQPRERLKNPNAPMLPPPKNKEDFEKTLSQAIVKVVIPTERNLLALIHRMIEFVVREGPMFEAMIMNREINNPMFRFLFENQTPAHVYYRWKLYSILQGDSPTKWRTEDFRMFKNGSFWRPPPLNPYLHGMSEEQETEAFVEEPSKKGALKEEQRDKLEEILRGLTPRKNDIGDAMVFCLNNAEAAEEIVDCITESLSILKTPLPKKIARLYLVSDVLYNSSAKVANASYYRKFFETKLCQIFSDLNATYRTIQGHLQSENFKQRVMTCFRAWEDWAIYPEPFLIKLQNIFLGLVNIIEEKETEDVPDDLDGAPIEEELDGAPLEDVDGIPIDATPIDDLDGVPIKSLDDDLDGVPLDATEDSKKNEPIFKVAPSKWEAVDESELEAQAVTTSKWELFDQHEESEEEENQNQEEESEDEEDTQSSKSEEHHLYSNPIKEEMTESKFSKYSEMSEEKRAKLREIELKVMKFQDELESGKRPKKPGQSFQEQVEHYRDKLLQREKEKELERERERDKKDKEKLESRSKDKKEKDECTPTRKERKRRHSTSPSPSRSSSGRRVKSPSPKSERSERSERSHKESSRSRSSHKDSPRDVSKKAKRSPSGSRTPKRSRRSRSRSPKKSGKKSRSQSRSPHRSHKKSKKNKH
UniProt Q7Z6J8: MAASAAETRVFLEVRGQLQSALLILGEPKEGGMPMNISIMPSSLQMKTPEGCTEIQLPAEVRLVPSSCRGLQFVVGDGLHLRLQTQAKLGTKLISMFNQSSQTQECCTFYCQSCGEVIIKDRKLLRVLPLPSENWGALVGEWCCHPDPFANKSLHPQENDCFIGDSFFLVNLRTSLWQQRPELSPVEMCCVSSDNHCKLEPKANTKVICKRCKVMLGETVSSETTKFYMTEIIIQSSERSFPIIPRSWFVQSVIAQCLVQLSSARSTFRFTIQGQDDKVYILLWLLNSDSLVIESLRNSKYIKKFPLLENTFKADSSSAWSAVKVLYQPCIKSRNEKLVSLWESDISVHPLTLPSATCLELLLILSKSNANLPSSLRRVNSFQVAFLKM
UniProt Q7Z3V4: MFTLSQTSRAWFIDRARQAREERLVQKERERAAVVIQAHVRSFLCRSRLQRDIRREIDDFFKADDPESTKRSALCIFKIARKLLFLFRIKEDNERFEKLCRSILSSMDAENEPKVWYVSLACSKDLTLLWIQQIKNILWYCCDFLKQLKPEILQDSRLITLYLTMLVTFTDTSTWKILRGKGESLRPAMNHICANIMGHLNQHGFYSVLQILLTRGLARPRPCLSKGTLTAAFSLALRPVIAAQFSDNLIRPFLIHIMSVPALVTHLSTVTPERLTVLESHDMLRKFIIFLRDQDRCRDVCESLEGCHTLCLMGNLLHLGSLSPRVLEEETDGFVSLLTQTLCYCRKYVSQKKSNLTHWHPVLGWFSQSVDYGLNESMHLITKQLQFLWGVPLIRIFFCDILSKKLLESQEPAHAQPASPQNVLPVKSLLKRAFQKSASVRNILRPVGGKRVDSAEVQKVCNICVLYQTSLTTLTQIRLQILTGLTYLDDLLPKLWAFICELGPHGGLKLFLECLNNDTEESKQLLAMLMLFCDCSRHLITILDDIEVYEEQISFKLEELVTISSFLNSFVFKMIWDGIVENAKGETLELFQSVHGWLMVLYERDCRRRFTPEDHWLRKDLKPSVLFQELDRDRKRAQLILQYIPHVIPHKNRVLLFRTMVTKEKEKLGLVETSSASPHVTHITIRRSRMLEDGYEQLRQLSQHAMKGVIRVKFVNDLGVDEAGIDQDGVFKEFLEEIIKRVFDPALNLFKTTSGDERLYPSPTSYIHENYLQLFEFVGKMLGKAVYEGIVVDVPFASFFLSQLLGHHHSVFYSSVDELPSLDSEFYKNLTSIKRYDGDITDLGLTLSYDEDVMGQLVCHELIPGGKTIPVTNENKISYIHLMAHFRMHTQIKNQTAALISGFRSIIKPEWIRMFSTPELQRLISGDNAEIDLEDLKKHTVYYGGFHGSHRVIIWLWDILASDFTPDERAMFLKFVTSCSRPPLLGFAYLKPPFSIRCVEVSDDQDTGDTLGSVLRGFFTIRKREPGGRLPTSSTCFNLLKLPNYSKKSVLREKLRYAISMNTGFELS
UniProt P63279, whole entry, looked up: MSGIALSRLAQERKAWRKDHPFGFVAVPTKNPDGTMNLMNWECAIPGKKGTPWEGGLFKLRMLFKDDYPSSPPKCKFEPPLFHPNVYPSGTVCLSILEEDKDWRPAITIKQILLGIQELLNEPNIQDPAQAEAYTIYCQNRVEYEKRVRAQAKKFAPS
UniProt Q5JXB2: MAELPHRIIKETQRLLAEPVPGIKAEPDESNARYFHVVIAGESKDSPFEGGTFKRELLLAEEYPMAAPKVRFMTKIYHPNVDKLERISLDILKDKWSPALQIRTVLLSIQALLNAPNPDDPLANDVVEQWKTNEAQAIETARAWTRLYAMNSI
UniProt Q9BUF5, whole entry, looked up: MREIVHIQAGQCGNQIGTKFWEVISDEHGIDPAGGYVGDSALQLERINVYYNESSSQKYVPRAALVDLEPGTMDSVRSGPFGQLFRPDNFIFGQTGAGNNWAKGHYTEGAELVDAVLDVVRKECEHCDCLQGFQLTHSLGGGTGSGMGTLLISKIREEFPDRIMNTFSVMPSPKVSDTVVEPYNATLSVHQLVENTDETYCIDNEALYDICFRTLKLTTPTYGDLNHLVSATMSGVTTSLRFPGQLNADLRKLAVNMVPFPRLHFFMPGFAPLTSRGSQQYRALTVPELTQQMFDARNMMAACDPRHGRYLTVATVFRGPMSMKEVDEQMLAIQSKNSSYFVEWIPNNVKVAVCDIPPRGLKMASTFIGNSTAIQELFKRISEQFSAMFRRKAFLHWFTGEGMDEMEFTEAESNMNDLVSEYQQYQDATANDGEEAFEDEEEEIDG
UniProt Q9NX01: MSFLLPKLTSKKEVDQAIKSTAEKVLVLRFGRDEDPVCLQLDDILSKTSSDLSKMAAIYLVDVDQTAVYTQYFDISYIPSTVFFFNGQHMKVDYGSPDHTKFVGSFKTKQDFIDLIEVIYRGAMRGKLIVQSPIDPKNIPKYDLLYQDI
UniProt P68036, whole entry, looked up: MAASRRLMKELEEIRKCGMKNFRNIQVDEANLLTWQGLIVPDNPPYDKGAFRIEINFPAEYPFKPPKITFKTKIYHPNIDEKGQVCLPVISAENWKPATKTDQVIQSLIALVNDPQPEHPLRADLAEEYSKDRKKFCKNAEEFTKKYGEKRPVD
UniProt Q9NUQ3: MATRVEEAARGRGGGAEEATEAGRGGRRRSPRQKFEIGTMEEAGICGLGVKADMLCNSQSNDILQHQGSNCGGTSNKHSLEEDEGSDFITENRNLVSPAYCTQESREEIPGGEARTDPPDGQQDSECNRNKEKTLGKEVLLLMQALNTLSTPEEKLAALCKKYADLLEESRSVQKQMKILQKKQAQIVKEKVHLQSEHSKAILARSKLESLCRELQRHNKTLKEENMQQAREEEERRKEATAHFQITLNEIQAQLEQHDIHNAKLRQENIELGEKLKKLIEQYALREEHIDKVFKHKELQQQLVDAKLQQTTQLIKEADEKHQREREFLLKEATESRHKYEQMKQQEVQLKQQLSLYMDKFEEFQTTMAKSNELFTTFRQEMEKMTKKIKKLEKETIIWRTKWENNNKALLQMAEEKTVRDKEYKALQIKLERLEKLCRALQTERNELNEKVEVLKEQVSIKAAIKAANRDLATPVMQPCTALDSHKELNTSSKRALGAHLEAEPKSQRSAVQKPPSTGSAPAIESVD
UniProt Q9UJT0: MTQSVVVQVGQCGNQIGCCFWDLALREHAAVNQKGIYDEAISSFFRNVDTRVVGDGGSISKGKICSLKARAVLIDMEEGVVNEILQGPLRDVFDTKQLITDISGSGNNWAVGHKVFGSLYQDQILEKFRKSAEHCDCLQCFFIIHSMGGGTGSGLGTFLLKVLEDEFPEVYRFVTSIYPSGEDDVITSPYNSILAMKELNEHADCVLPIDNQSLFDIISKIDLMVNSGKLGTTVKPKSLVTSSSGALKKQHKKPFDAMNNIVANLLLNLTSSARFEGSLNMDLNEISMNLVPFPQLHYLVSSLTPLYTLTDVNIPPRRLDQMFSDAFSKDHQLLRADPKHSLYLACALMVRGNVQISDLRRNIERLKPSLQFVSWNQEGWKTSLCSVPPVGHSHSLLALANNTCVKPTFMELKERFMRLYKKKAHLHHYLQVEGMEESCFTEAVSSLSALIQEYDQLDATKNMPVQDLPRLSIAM
UniProt Q9GZX9: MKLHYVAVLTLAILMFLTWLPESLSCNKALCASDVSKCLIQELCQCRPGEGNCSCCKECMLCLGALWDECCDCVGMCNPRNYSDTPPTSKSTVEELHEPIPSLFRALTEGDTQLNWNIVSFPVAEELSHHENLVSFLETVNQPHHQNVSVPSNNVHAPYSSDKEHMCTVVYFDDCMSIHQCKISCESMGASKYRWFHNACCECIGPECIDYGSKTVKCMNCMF

Tubastatin A = compound: CN1CCc2c(c3ccccc3n2Cc2ccc(C(=O)NO)cc2)C1 [Tubastatin A]
Summary of the method: as §1

[1] = compound: CNC(=O)C1=CC=CC=C1NC2=NC(=NC=C2Cl)NC3=C(C=C(C=C3)N4CCOCC4)OC
Summary of the method: as §1

defactinib = compound: CNC(=O)c1ccc(Nc2ncc(C(F)(F)F)c(NCc3nccnc3N(C)S(C)(=O)=O)n2)cc1 [defactinib]
Summary of the method: as §1

[2] = compound: CNc1nc(-c2ccc3c(N)n[nH]c3c2)cc(N2C[C@@H](C(=O)NC3CCCCC3)CC[C@H]2C)n1
Summary of the method: as §1

encorafenib = compound: COC(=O)N[C@@H](C)CNc1nccc(-c2cn(C(C)C)nc2-c2cc(Cl)cc(NS(C)(=O)=O)c2F)n1 [encorafenib]
Summary of the method: as §1

[3] = compound: COC(=O)[C@H](CCSC)NC(=O)C1=C(C=C(C=C1)NC[C@H](CS)N)C2=CC=CC=C2
Summary of the method: as §1

alisertib = compound: COc1cc(Nc2ncc3c(n2)-c2ccc(Cl)cc2C(c2c(F)cccc2OC)=NC3)ccc1C(=O)O [alisertib]
Summary of the method: as §1

[4] = compound: COc1cc2nc(-c3cc(F)ccc3O)nc(N[C@@H]3CNC[C@H]3C(C)(C)O)c2cc1OC
Summary of the method: as §1

gefitinib = compound: COc1cc2ncnc(Nc3ccc(F)c(Cl)c3)c2cc1OCCCN1CCOCC1 [gefitinib]
Summary of the method: as §1

lapatinib = compound: CS(=O)(=O)CCNCc1ccc(-c2ccc3ncnc(Nc4ccc(OCc5cccc(F)c5)c(Cl)c4)c3c2)o1 [lapatinib]
Summary of the method: as §1

pictilisib = compound: CS(=O)(=O)N1CCN(Cc2cc3nc(-c4cccc5[nH]ncc45)nc(N4CCOCC4)c3s2)CC1 [pictilisib]
Summary of the method: as §1

crizotinib = compound: C[C@@H](Oc1cc(-c2cnn(C3CCNCC3)c2)cnc1N)c1c(Cl)ccc(F)c1Cl [crizotinib]
Summary of the method: as §1

[5] = compound: C[C@H](C1=CC=C(C=C1)C(=O)NC2=C3C=CNC3=NC=C2)N
Summary of the method: as §1

duvelisib = compound: C[C@H](Nc1ncnc2nc[nH]c12)c1cc2cccc(Cl)c2c(=O)n1-c1ccccc1 [duvelisib]
Summary of the method: as §1

gandotinib = compound: Cc1cc(Nc2cc(CN3CCOCC3)c3nc(C)c(Cc4ccc(Cl)cc4F)n3n2)n[nH]1 [gandotinib]
Summary of the method: as §1

tozasertib = compound: Cc1cc(Nc2cc(N3CCN(C)CC3)nc(Sc3ccc(NC(=O)C4CC4)cc3)n2)n[nH]1 [tozasertib]
Summary of the method: as §1

doramapimod = compound: Cc1ccc(-n2nc(C(C)(C)C)cc2NC(=O)Nc2ccc(OCCN3CCOCC3)c3ccccc23)cc1 [doramapimod]
Summary of the method: as §1

bafetinib = compound: Cc1ccc(NC(=O)c2ccc(CN3CC[C@H](N(C)C)C3)c(C(F)(F)F)c2)cc1Nc1nccc(-c2cncnc2)n1 [bafetinib]
Summary of the method: as §1

[6] = compound: Cc1cccc(CC(=O)N2CCc3c2ccc(-c2cn(C)c4ncnc(N)c24)c3F)n1
Summary of the method: as §1

Measured: log2 fold change

UBE2E3 (UniProt Q969T4)
inactive: alvocidib -0.05 | Tubastatin A 0.016 | [1] -0.009 | defactinib 0.02 | [2] 0.009 | encorafenib 0.002 | [3] 0.019 | alisertib 0.039 | [4] 0.023 | gefitinib -0.049 | lapatinib 0.013 | pictilisib -0.003 | crizotinib -0.034 | [5] -0.005 | duvelisib -0.013 | gandotinib 0.047 | tozasertib -0.023 | doramapimod -0.011 | bafetinib -0.036 | [6] 0.074

UAP1 (UniProt Q16222)
inactive: alvocidib 0.011 | Tubastatin A -0.016 | [1] 0.03 | defactinib -0.002 | [2] -0.005 | encorafenib -0.023 | [3] 0.079 | alisertib 0.005 | [4] -0.011 | gefitinib 0.02 | lapatinib -0.001 | pictilisib 0.014 | crizotinib -0.016 | [5] -0.017 | duvelisib -0.001 | gandotinib -0.029 | tozasertib -0.014 | doramapimod 0.008 | bafetinib -0.009 | [6] 0.002

UAP1L1 (UniProt Q3KQV9)
inactive: alvocidib 0.05 | Tubastatin A -0.132 | [1] 0.008 | defactinib -0.156 | [2] 0.032 | encorafenib -0.009 | [3] 0.186 | alisertib 0.022 | [4] 0.069 | gefitinib -0.035 | lapatinib -0.035 | pictilisib 0.004 | crizotinib -0.007 | [5] 0.218 | duvelisib -0.191 | gandotinib -0.124 | tozasertib 0.093 | doramapimod 0.04 | bafetinib -0.033 | [6] -0.112

UBE2S (UniProt Q16763)
inactive: alvocidib -0.003 | Tubastatin A -0.005 | [1] 0.018 | defactinib -0.037 | [2] 0.055 | encorafenib -0.005 | [3] -0.069 | alisertib -0.006 | [4] -0.018 | gefitinib 0.01 | lapatinib 0.022 | pictilisib -0.012 | crizotinib 0.021 | [5] -0.037 | duvelisib -0.015 | gandotinib 0.023 | tozasertib 0.069 | doramapimod -0.012 | bafetinib -0.016 | [6] 0.015

UCK1 isoform 4 (UniProt Q9HA47)
inactive: alvocidib 0.033 | Tubastatin A -0.129 | [1] 0.041 | defactinib -0.006 | [2] 0.077 | encorafenib -0.01 | [3] -0.083 | alisertib -0.034 | [4] -0.04 | gefitinib -0.02 | lapatinib 0.082 | pictilisib -0.013 | crizotinib -0.002 | [5] -0.073 | duvelisib 0.063 | gandotinib -0.02 | tozasertib -0.03 | doramapimod -0.033 | bafetinib -0.012 | [6] 0.061

U2SURP (UniProt O15042)
inactive: alvocidib -0.002 | Tubastatin A -0.101 | [1] 0.014 | defactinib 0.008 | [2] -0.003 | encorafenib 0.004 | [3] 0.051 | alisertib 0 | [4] -0.003 | gefitinib 0.018 | lapatinib 0.021 | pictilisib -0.001 | crizotinib 0.037 | [5] 0.038 | duvelisib -0.038 | gandotinib -0.057 | tozasertib -0.005 | doramapimod -0.032 | bafetinib 0.017 | [6] -0.004

UBE3D (UniProt Q7Z6J8)
inactive: alvocidib -0.06 | Tubastatin A 0.017 | [1] -0.013 | defactinib -0.008 | [2] 0.105 | encorafenib 0.03 | [3] -0.031 | alisertib 0.02 | [4] -0.043 | gefitinib 0.002 | lapatinib 0.052 | pictilisib 0.003 | crizotinib -0.026 | [5] -0.092 | duvelisib 0.072 | gandotinib 0.084 | tozasertib 0.019 | doramapimod -0.011 | bafetinib 0.011 | [6] 0.004

UBE3B (UniProt Q7Z3V4)
inactive: alvocidib -0.07 | Tubastatin A -0.134 | [1] 0.136 | defactinib 0.028 | [2] 0.008 | encorafenib 0.102 | [3] -0.047 | alisertib 0 | [4] 0.006 | gefitinib 0.044 | lapatinib -0.019 | pictilisib 0.025 | crizotinib -0.027 | [5] -0.174 | duvelisib 0.136 | gandotinib -0.17 | tozasertib -0.005 | doramapimod 0.083 | bafetinib -0.082 | [6] 0.203

UBE2I (UniProt P63279)
inactive: alvocidib 0.014 | Tubastatin A 0.054 | [1] -0.003 | defactinib -0.005 | [2] 0.053 | encorafenib -0.032 | [3] -0.034 | alisertib 0.04 | [4] 0.005 | gefitinib -0.062 | lapatinib 0.018 | pictilisib -0.022 | crizotinib -0.009 | [5] -0.061 | duvelisib -0.019 | gandotinib 0.015 | tozasertib -0.038 | doramapimod 0.014 | bafetinib -0.035 | [6] 0.001

UBE2NL (UniProt Q5JXB2)
inactive: alvocidib 0.02 | Tubastatin A 0.057 | [1] -0.033 | defactinib 0.029 | [2] 0.072 | encorafenib 0.018 | [3] -0.005 | alisertib 0.006 | [4] -0.03 | gefitinib -0.016 | lapatinib -0.016 | pictilisib 0.022 | crizotinib 0.003 | [5] 0.035 | duvelisib 0.005 | gandotinib -0.002 | tozasertib 0.07 | doramapimod 0.008 | bafetinib -0.009 | [6] -0.03

TUBB6 (UniProt Q9BUF5)
inactive: alvocidib 0.023 | Tubastatin A -0.064 | [1] 0.015 | defactinib 0.034 | [2] 0.023 | encorafenib 0.017 | [3] 0.056 | alisertib 0.028 | [4] 0.011 | gefitinib -0.024 | lapatinib -0.038 | pictilisib -0.015 | crizotinib -0.056 | [5] 0.003 | duvelisib 0.009 | gandotinib -0.009 | tozasertib -0.02 | doramapimod -0.047 | bafetinib -0.023 | [6] -0.018

TXNL4B (UniProt Q9NX01)
inactive: alvocidib 0.03 | Tubastatin A 0.067 | [1] -0.049 | defactinib 0.005 | [2] -0.033 | encorafenib 0.074 | [3] 0.017 | alisertib 0 | [4] -0.056 | gefitinib 0.31 | lapatinib -0.109 | pictilisib 0.182 | crizotinib 0.039 | [5] -0.156 | duvelisib 0.031 | gandotinib -0.023 | tozasertib 0.248 | doramapimod 0.093 | bafetinib -0.152 | [6] 0.376

Retrieved one by one from the list above, 2 records:
U2SURP (UniProt O15042)
inactive: alvocidib -0.002 | Tubastatin A -0.101 | [1] 0.014 | defactinib 0.008 | [2] -0.003 | encorafenib 0.004 | [3] 0.051 | alisertib 0 | [4] -0.003 | gefitinib 0.018 | lapatinib 0.021 | pictilisib -0.001 | crizotinib 0.037 | [5] 0.038 | duvelisib -0.038 | gandotinib -0.057 | tozasertib -0.005 | doramapimod -0.032 | bafetinib 0.017 | [6] -0.004

UCK1 isoform 4 (UniProt Q9HA47)
inactive: alvocidib 0.033 | Tubastatin A -0.129 | [1] 0.041 | defactinib -0.006 | [2] 0.077 | encorafenib -0.01 | [3] -0.083 | alisertib -0.034 | [4] -0.04 | gefitinib -0.02 | lapatinib 0.082 | pictilisib -0.013 | crizotinib -0.002 | [5] -0.073 | duvelisib 0.063 | gandotinib -0.02 | tozasertib -0.03 | doramapimod -0.033 | bafetinib -0.012 | [6] 0.061

Going on with the list:

UBE2L3 isoform 3 (UniProt P68036)
inactive: alvocidib 0.004 | Tubastatin A 0.053 | [1] -0.001 | defactinib -0.048 | [2] 0.013 | encorafenib -0.021 | [3] -0.004 | alisertib 0.026 | [4] 0.02 | gefitinib 0.017 | lapatinib 0 | pictilisib -0.013 | crizotinib 0.036 | [5] 0.086 | duvelisib 0.025 | gandotinib -0.041 | tozasertib -0.008 | doramapimod -0.039 | bafetinib 0.053 | [6] -0.041

TXLNG (UniProt Q9NUQ3)
inactive: alvocidib 0.013 | Tubastatin A -0.01 | [1] -0.009 | defactinib 0.001 | [2] -0.009 | encorafenib -0.003 | [3] -0.028 | alisertib 0.019 | [4] 0.005 | gefitinib -0.026 | lapatinib -0.009 | pictilisib 0.005 | crizotinib 0.068 | [5] -0.011 | duvelisib 0.003 | gandotinib 0.031 | tozasertib 0.004 | doramapimod -0.019 | bafetinib 0.034 | [6] -0.004

TUBE1 (UniProt Q9UJT0)
inactive: alvocidib 0.06 | Tubastatin A -0.001 | [1] 0.062 | defactinib 0.107 | [2] -0.027 | encorafenib 0.036 | [3] -0.108 | alisertib 0.052 | [4] -0.009 | gefitinib -0.005 | lapatinib -0.008 | pictilisib -0.005 | crizotinib 0.095 | [5] 0.214 | duvelisib -0.01 | gandotinib -0.076 | tozasertib 0.054 | doramapimod -0.034 | bafetinib -0.066 | [6] -0.029

TWSG1 (UniProt Q9GZX9)
inactive: alvocidib -0.011 | Tubastatin A 0 | [1] 0.008 | defactinib 0.008 | [2] 0.208 | encorafenib 0.01 | [3] 0.116 | alisertib 0.071 | [4] 0.085 | gefitinib -0.011 | lapatinib -0.013 | pictilisib -0.021 | crizotinib 0.125 | [5] 0.069 | duvelisib -0.079 | gandotinib -0.034 | tozasertib 0 | doramapimod -0.079 | bafetinib 0.025 | [6] -0.084

From the supplement of paper PMC10849652
